Paper PMC11996870
No constants are given. Whether binding was seen depends on the method and setting. In cells and extracts the contact can be indirect. Some results given as binding are weak or reduced against the parent protein; the word gives no strength. Each block holds one substance with its values, some of them ahead of it.

The chains behind the UniProt entries cited, without tags or fusion partners. Residues count along the entry.
UniProt P20827, residues 19-182: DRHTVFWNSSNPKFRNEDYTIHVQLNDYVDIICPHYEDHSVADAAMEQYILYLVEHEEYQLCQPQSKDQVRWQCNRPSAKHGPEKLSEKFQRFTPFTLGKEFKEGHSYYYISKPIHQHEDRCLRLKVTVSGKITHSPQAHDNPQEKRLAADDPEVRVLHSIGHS
UniProt P29317, residues 24-976: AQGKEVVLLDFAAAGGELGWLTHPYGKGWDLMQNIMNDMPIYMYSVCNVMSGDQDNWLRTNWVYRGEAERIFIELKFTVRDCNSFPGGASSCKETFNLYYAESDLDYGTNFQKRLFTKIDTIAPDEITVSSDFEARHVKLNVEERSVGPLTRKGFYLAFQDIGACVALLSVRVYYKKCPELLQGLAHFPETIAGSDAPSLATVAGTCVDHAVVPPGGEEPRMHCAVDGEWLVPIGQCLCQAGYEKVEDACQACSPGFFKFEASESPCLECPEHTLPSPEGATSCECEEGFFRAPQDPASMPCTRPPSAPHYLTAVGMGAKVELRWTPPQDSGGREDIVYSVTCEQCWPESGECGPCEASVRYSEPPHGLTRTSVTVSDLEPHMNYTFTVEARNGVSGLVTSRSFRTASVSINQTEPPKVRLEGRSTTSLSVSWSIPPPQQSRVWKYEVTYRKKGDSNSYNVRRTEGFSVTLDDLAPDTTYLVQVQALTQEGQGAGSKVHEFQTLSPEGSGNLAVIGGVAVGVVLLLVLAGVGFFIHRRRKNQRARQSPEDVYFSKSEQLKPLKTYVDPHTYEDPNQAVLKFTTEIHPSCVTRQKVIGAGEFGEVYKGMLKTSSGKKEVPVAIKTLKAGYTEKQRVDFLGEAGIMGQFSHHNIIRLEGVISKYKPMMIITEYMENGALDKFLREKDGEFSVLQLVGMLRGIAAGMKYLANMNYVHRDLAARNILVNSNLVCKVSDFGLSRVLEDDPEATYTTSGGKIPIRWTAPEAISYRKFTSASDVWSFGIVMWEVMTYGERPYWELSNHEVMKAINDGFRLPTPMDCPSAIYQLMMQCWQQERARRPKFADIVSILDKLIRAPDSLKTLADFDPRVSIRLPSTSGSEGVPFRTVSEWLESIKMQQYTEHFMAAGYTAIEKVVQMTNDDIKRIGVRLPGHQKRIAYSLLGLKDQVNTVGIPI

Legend:
EFNA2 = molecular target: T1, EFNA2 (UniProt O43921); experiment: co-IP; forward and reverse IP of EphA2 with EFNA2 or EFNA5 (Supplemental Figure 14)
T1 sequence: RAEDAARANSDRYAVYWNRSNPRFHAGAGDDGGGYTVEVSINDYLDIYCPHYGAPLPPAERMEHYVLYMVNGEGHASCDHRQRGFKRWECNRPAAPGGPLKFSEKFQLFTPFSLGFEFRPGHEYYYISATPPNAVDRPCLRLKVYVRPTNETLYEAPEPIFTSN

[1] = molecular target: EFNA1 (human (endogenous in SiHa and HCC-94)) (UniProt P20827); experiment: co-IP; immunoprecipitation with anti-EFNA1 or anti-EphA2 antibodies from SiHa and HCC-94 cells, Western blot; endogenous proteins
EFNA1-HA (human) = EFNA1-HA (human) (UniProt P20827); experiment: co-IP; SiHa cells cotransfected with EFNA1-HA and FLAG-tagged EphA2 wild type or truncated mutants; immunoprecipitation with anti-HA antibodies (forward) and reverse co-IP

- binding (EFNA2): no binding
Substance: EphA2 (as used in the IP experiments with EFNA2 and EFNA5) (from UniProt P29317 24-976) (receptor)

- binding [1]: binds
Substance: EphA2 (from UniProt P29317 24-976) (receptor)

- binding (EFNA1-HA (human)): binds
Substance: FLAG-tagged wild-type EphA2 (EphA2^WT) (from UniProt P29317 24-976) (receptor)
